Results published in patent publication US8895585B2, “Nicotinamide derivative or salt thereof” (FUJIFILM Corporation, priority 2010, dated 2014).
Structures can show the parent of a compound that is named as a salt. Some results were stated once for a whole list of compounds, not compound by compound. For some of these results: The name of at least one read-out is uncertain. For some of these results: For at least one compound, name, drawing or mass did not settle the structure.

Columns and labels:
[1] = target: T1, glutathione S-transferase (GST)-fused full-length human Syk protein (Homo sapiens, UniProt P43405); experiment: Syk enzyme assay; type: biochemical; conditions: read-out: Syk-inhibitory activity (IC50)
T1 construct: (GST)-fused full-length human Syk protein; GST (glutathione S-transferase); purchased Carna Biosciences
Experimental: A glutathione S-transferase (GST)-fused full-length human Syk protein (Carna Biosciences), which had been generated using a Baculovirus expression system, was used in the Syk enzyme assay.
15 μl of a reaction solution (1.2 ng Syk, 20 mM HEPES, 10 mM MgCl2, 50 mM NaCl, 2 mM DTT, 0.05% BSA, pH 7.0) containing a Syk protein and a predetermined concentration of a test compound was shaken for 2 minutes, and it was then left at rest at room temperature for 13 minutes. Thereafter, 5 μl of Biotin-EDPDYEWPSA-NH2 (final concentration: 0.4 μM) serving as a substrate peptide and 5 μl of ATP (final concentration: 27 μM) were added to the reaction solution, and the obtained mixture was then shaken for 2 minutes. The reaction solution was further left at rest at room temperature for 40 minutes, so as to carry out an enzyme reaction.
Thereafter, 50 μl of a reaction termination solution [5 μg/ml Streptavidin, 0.18 μg/ml PT66-K, 30 mM HEPES (pH 7.0), 150 mM KF, 75 mM EDTA, 0.15% BSA, 0.075% Tween20], which contained Streptavidin-Xlent (Cisbio) and Mab PT66-K (Cisbio), was added to the reaction solution to terminate the enzyme reaction. […] Thereafter, using EnVision (PerkinElmer), the time-resolved fluorescence was measured at 615 nm and 665 nm, so that the phosphorylation of the substrate peptide was measured. […]

female CD1 mice = experiment: Mouse thrombocytopenia model; type: in vivo; conditions: compound given 1 hour before anti-mouse CD41 antibody i.v.; blood sampled 4 hours after antibody

| Compound | IC50 [1] | improvement of the number of platelet (female CD1 mice) |
| --- | --- | --- |
| Cc1ccc(Nc2nc(N[C@@H]3CCCC[C@@H]3N)c(F)cc2C(N)=O)cn1 (relative stereo) [Example 3, 6-(cis-2-aminocyclohexylamino)-5-fluoro-2-(6-methylpyridin-3-ylamino)nicotinamide•hydrochloride] | ≤ 1 µM | – |
| CCn1ncc2cc(Nc3nc(N[C@H](CC(C)C)[C@H](C)N)c(F)cc3C(N)=O)ccc21 [Example 6-384, 6-(((2S,3R)-2-amino-5-methylhexane3-yl)amino)-2-((1-ethyl-1H-indazol-5-yl)amino)-5-fluoronicotinamide] | – | ≥ 50% |
| Cc1cncc(Nc2nc(N[C@@H]3CCCC[C@@H]3N)c(F)cc2C(N)=O)c1 (relative stereo) [Example 5, 6-(cis-2-aminocyclohexylamino)-5-fluoro-2-(5-methylpyridin-3-ylamino)nicotinamide•hydrochloride] | ≤ 1 µM | – |
| Cc1cc(Nc2nc(N[C@H](CC3CC3)[C@H](C)N)c(F)cc2C(N)=O)cnc1C [Example 6-435, 6-(((2R,3S)-3-amino-1-cyclopropylbutan-2-yl)amino)-2-((5,6-dimethylpyridin-3-yl)amino)-5-fluoronicotinamide] | – | ≥ 50% |
| CCCOc1cc(Nc2nc(N[C@H](CCC)[C@H](C)N)c(F)cc2C(N)=O)ccn1 [Example 6-311, 6-(((2S,3R)-2-aminohexane3-yl)amino)-5-fluoro-2-((2-propoxypyridin-4-yl)amino)nicotinamide] | – | ≥ 50% |
| NC(=O)c1cc(F)c(N[C@@H]2CCCC[C@@H]2N)nc1Nc1ccc(N2CCOCC2)nc1 [Example 6-165] | – | ≥ 50% |
| Cc1ncc(Nc2nc(N[C@@H]3CCCC[C@@H]3N)c(F)cc2C(N)=O)cc1-n1nccn1 [Example 6-375, 6-(((1R,2S)-2-aminocyclohexyl)amino)-5-fluoro-2-((6-methyl-5-(2H-1,2,3-triazol-2-yl)pyridin-3-yl)amino)nicotinamide] | – | ≥ 50% |
| CC(C)C[C@@H](Nc1nc(Nc2ccc3c(cnn3C)c2)c(C(N)=O)cc1F)[C@H](C)N [Example 6-383, 6-(((2S,3R)-2-amino-5-methylhexane3-yl)amino)-5-fluoro-2-((1-methyl-1H-indazol-5-yl)amino)nicotinamide] | – | ≥ 50% |
| NC(=O)c1cc(F)c(N[C@@H]2CCCC[C@@H]2N)nc1Nc1cncc(-n2cccn2)c1 (relative stereo) [Example 6-168, 2-((5-(1H-pyrazol-1-yl)pyridin-3-yl)amino)-6-((1R,2S)-2-aminocyclohexylamino)-5-fluoronicotinamide] | – | ≥ 50% |
| Cc1cc(Nc2nc(N[C@@H](CN)CC(C)C)c(F)cc2C(N)=O)cnc1C [Example 6-177, (R)-6-((1-amino-4-methylpentan-2-yl)amino)-2-((5,6-dimethylpyridin-3-yl)amino)-5-fluoronicotinamide] | – | ≥ 50% |
| CCOc1nccc(Nc2nc(N[C@@H]3CCCC[C@@H]3N)c(F)cc2C(N)=O)c1F [Example 6-433] | – | ≥ 50% |
| COc1ncc(Nc2nc(N[C@@H]3CCCC[C@@H]3N)c(F)cc2C(N)=O)cc1-n1nccn1 [Example 6-377, 6-(((1R,2S)-2-aminocyclohexyl)amino)-5-fluoro-2-((6-methoxy-5-(2H-1,2,3-triazol-2-yl)pyridin-3-yl)amino)nicotinamide] | – | ≥ 50% |
| CCC[C@@H](Nc1nc(Nc2cnc(C)c(C)c2)c(C(N)=O)cc1F)[C@H](C)N [Example 6-296, 6-(((2S,3R)-2-aminohexane3-yl)amino)-2-((5,6-dimethylpyridin-3-yl)amino)-5-fluoronicotinamide] | – | ≥ 50% |
| CCC[C@@H](Nc1nc(Nc2cncc(F)c2)c(C(N)=O)cc1F)[C@H](C)N [Example 6-301, 6-(((2S,3R)-2-aminohexane3-yl)amino)-5-fluoro-2-((5-fluoropyridin-3-yl)amino)nicotinamide] | – | ≥ 50% |
| C[C@H](N)[C@H](Nc1nc(Nc2ccc3ncccc3c2)c(C(N)=O)cc1F)C1CC1 [Example 6-368, 6-(((1R,2S)-2-amino-1-cyclopropylpropyl)amino)-5-fluoro-2-(quinolin-6-ylamino)nicotinamide] | – | ≥ 50% |
| CC[C@@H](Nc1nc(Nc2ccc3c(cnn3CC)c2)c(C(N)=O)cc1F)[C@H](C)N [Example 6-211, 6-(((2S,3R)-2-aminopentane3-yl)amino)-2-((1-ethyl-1H-indazol-5-yl)amino)-5-fluoronicotinamide] | – | ≥ 50% |
| N#Cc1cc(Nc2nc(N[C@@H]3CCCC[C@@H]3N)c(F)cc2C(N)=O)cnc1N1CCOCC1 (relative stereo) [Example 4-228, 6-((cis-2-aminocyclohexyl)amino)-2-((5-cyano-6-morpholinopyridin-3-yl)amino)-5-fluoronicotinamide] | – | ≥ 50% |
| CC[C@@H](Nc1nc(Nc2ccc3c(OC)nccc3c2)c(C(N)=O)cc1F)[C@H](C)N [Example 6-263, 6-(((2S,3R)-2-aminopentane3-yl)amino)-5-fluoro-2-((1-methoxyisoquinolin-6-yl)amino)nicotinamide] | – | ≥ 50% |
| COC[C@@H](Nc1nc(Nc2ccc3ncccc3c2)c(C(N)=O)cc1F)[C@H](C)N [Example 6-468, 6-(((2S,3S)-3-amino-1-methoxybutan-2-yl)amino)-5-fluoro-2-(quinolin-6-ylamino)nicotinamide] | – | ≥ 50% |
| CCn1ncc2cc(Nc3nc(N[C@H](CC4CC4)[C@H](C)N)c(F)cc3C(N)=O)ccc21 [Example 6-342, 6-(((2R,3S)-3-amino-1-cyclopropylbutan-2-yl)amino)-2-((1-ethyl-1H-indazol-5-yl)amino)-5-fluoronicotinamide] | – | ≥ 50% |
| CCn1ncc2cc(Nc3nc(N[C@@H](CN)CC(C)C)c(F)cc3C(N)=O)ccc21 [Example 6-322, (R)-6-((1-amino-4-methylpentan-2-yl)amino)-2-((1-ethyl-1H-indazol-5-yl)amino)-5-fluoronicotinamide] | – | ≥ 50% |
| CCC[C@@H](Nc1nc(Nc2ccnc(OC)c2)c(C(N)=O)cc1F)[C@H](C)N [Example 6-249, 6-(((2S,3R)-2-aminohexane-3-yl)amino)-5-fluoro-2-((2-methoxypyridin-4-yl)amino)nicotinamide] | – | ≥ 50% |
| NC(=O)c1cc(F)c(N[C@@H]2CCCC[C@@H]2N)nc1Nc1cnc(N2CCOCC2)c(F)c1 [Example 6-395, 6-(((1R,2S)-2-aminocyclohexyl)amino)-5-fluoro-2-((5-fluoro-6-morpholinopyridin-3-yl)amino)nicotinamide] | – | ≥ 50% |
| CC[C@@H](Nc1nc(Nc2cncc(-c3ccccc3F)c2)c(C(N)=O)cc1F)[C@H](C)N [Example 6-257, 6-(((2S,3R)-2-aminopentane3-yl)amino)-5-fluoro-2-((5-(2-fluorophenyl)pyridin-3-yl)amino)nicotinamide] | – | ≥ 50% |
| CC[C@@H](Nc1nc(Nc2cccc3c2cnn3C)c(C(N)=O)cc1F)[C@H](C)N [Example 6-268, 6-(((2S,3R)-2-aminopentane3-yl)amino)-5-fluoro-2-((1-methyl-1H-indazol-4-yl)amino)nicotinamide] | – | ≥ 50% |
